Reference: PMC3830446
These are yes or no findings as the source states them, for the method shown. In cells and extracts the contact can be indirect. Some entries that bind do so weakly or less than the wild type.

The chains behind the UniProt entries cited, without tags or fusion partners.
UniProt P30086: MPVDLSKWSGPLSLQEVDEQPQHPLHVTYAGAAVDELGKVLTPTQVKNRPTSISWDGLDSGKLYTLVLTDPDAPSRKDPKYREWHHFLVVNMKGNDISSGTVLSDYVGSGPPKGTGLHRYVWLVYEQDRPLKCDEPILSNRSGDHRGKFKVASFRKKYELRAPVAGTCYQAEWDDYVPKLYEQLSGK
UniProt P08238: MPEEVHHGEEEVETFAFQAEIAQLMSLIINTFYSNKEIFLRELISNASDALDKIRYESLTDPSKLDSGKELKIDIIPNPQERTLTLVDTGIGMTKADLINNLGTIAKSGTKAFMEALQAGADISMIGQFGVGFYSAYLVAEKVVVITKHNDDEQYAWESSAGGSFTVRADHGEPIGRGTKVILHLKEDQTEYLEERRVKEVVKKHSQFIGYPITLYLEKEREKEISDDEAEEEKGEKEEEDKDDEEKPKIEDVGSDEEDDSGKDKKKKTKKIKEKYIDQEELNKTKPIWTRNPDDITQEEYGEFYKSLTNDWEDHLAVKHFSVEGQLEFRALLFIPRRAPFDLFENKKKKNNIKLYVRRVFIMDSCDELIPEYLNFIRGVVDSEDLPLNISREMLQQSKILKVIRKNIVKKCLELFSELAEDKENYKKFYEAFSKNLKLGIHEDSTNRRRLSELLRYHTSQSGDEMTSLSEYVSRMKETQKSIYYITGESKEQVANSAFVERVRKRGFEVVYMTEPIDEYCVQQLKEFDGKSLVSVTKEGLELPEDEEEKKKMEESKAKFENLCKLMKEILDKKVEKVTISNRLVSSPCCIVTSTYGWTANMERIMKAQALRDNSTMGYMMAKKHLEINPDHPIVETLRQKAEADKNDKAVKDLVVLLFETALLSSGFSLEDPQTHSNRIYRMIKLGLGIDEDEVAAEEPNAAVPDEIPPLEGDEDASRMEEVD
UniProt P62258: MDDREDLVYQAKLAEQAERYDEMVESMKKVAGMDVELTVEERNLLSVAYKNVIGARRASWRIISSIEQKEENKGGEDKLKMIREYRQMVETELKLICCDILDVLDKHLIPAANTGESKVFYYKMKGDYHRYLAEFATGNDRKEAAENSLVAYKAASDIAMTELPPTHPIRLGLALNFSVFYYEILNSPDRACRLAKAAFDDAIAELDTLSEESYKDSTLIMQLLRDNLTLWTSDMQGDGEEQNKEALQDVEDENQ

Target: RAF kinase inhibitor protein (human (endogenous in SGC7901)) (UniProt P30086)
Test: co-IP; total protein extract of SGC7901 cells precipitated with RKIP antibody and protein G-sepharose 4B beads, washed with TBST; Western blot with antibodies against HSP90, 14-3-3ϵ and keratin 8; non-immune IgY as negative control

| binding | Substance |
| --- | --- |
| binds | Heat shock protein HSP 90-beta (from UniProt P08238 1-724) |
| binds | 14-3-3 protein epsilon (from UniProt P62258 1-255) |
